These are yes or no findings as the source states them, for the method shown. Some results given as binding are weak or reduced against the parent protein; the word gives no strength. Tags and fused reporters may be left off the sequences shown.

For this assay, the target named is T1, VapC Rv0617 (Mycobacterium tuberculosis H37Ra) (UniProt P9WF79).
T1 sequence: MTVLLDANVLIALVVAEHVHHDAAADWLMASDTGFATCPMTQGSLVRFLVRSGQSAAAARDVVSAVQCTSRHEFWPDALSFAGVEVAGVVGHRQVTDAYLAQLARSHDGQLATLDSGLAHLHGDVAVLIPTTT
Nature of the assay: co-purification of a co-expressed complex.

B1: VapB antitoxin Rv0616A (protein, UniProt P9WJ37 1-75)
chain: MRTTIDLPQDLHKQALAIARDTHRTLSETVADLMRRGLAANRPTALSSDPRTGLPLVSVGTVVTSEDVRSLEDEQ
Turning to B1, the binding result is recorded as “binds”.
